Reference: PMC7862700
This is a selection; strong and weak results do not stand in their true shares. For part of these data: At the low end of the ranking, values are background and their order means little. The list shows a part of the results. For part of these data: The source does not settle which construct or isoform was used.

By UniProt entry, the sequences of proteins in these tests, tags left out. Where a name states a change or a piece, a line headed by the entry shows the natural chain unless it says otherwise.
UniProt P50549: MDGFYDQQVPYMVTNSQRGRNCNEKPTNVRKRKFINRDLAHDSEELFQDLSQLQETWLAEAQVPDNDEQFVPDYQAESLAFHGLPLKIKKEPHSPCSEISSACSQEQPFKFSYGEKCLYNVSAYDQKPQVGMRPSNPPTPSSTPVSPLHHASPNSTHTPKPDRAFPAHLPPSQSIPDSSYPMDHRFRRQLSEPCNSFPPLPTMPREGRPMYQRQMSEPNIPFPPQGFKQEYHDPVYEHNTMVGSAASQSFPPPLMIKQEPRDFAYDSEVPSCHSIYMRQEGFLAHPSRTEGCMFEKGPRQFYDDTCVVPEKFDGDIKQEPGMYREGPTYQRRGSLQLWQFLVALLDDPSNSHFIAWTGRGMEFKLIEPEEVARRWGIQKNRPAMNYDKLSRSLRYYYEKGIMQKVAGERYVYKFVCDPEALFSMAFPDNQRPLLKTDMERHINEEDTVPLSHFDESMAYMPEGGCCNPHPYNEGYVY

Key:
Assay in all cases: DAPPL (digital affinity profiling via proximity ligation, sequencing)
Conditions in all cases: 10 mM Tris-HCl pH 7.5, 50 mM NaCl, 1 mM DTT, 4% glycerol, room temperature, 30 min; GST-TFs on glutathione beads, 16-mer random dsDNA library, 0.1% …; high values mean tight binding; double strand, one strand shown; scale: fold enrichment (6-mer frequency, TF over GST control)
ERG = molecular target: T1, ERG (UniProt P11308)
T1 sequence: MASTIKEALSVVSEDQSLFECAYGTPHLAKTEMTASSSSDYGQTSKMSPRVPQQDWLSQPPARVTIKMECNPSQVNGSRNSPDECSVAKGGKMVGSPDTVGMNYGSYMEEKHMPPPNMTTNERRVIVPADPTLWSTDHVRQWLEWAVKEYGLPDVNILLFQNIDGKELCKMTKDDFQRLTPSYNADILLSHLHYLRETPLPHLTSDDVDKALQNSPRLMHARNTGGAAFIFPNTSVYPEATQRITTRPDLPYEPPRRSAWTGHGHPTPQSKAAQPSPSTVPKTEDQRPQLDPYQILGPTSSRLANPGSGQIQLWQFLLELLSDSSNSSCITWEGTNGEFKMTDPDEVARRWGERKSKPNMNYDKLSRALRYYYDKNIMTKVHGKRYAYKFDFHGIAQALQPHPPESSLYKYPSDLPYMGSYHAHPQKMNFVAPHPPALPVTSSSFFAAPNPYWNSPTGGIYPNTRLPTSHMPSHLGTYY

ETV4 = molecular target: T2, ETV4 (UniProt P43268)
T2 sequence: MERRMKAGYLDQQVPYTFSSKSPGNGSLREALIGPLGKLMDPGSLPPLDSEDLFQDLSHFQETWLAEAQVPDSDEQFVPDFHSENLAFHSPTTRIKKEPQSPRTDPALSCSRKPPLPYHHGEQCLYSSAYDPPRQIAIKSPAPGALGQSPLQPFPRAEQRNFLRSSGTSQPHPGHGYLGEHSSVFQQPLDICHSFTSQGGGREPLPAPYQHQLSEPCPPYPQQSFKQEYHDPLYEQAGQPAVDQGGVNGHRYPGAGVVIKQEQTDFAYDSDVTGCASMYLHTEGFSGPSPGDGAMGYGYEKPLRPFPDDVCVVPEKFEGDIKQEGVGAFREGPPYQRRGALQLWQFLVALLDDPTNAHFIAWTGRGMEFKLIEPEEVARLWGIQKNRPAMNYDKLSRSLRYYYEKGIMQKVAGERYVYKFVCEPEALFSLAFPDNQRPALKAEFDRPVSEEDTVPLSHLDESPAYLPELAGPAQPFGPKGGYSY

ETV1 = ETV1 (UniProt P50549)

Sequence	binding signal (ERG)	binding signal (ETV4)	binding signal (ETV1)
ACTACA	1.16	1.19	–
AAACTG	1.01	1.08	–
ATCCCG	1.44	1.34	–
GCAATG	1	0.998	–
CAACTC	1.28	1.27	–
CTCGTT	1.25	1.36	–
TAAAGC	0.997	1.01	–
AGGTCT	1.15	1.19	–
TTGAAA	1.09	1.17	–
TTAATA	–	1.16	–
CCCATA	1.24	1.3	–
CTTTAG	1.12	1.2	–
GCCTCT	1.35	1.42	–
CGAATT	1.23	1.23	–
GGACCT	1.33	1.39	–
ATTGGT	–	1.24	–
TCTGAC	–	1.22	–
CCTCTG	1.62	1.56	–
TTTACC	–	1.21	–
TCTTCC	–	2.54	–
TTCCAA	1.26	1.27	–
GTGCTA	–	1.07	–
TCCACT	–	1.56	–
TTTGTT	1.28	1.35	–

Sequence	binding signal (ERG)	binding signal (ETV4)	binding signal (ETV1)
AAATGC	1.3	1.21	–
ACTCAT	1.16	1.43	–
TTCTAC	1.53	1.52	–
TCACCA	1.14	1.21	–
CTGGTC	1.2	1.15	–
TGGACA	1.05	1.05	–
GCCTTA	1.21	1.18	–
CCGAAA	–	1.14	–
TGGCCG	1.19	1.06	–
AACTAG	1.21	1.08	–
ACAGGA	1.22	1.08	–
GCACCT	–	1.11	–
TTGTAT	–	1.32	–
TGAATG	1.21	1.14	–
TTGCAG	1.15	1.02	–
TAGGTC	1.03	0.956	–
GGTAAT	1.08	1.09	–
CTACTA	1.24	1.21	–
CTTGAA	1.12	1.18	–
CCTTCT	1.54	1.68	–
AGCTAG	0.981	1.03	–
CCCCAC	1.2	1.27	–
TCCCTG	1.28	1.29	–
CGGTCT	1.18	1.25	–

Sequence	binding signal (ERG)	binding signal (ETV4)	binding signal (ETV1)
GATCCA	1.03	1.07	–
CATCGC	1.06	1.07	–
TAGAAG	1.19	1.19	–
CTCCGA	1.34	1.43	–
TTGTTT	1.6	1.52	–
CTAAAT	1.34	1.27	–
CTACCC	1.36	1.31	–
ACCGCC	1.27	1.25	–
TCACCG	1.14	1.21	–
CTCATC	1.34	1.44	–
ATACTT	1.68	1.69	–
AAACTT	1.24	1.27	–
ATGTTT	1.39	1.43	–
TGCTTG	1.15	1.26	–
CTTCCC	2.19	2.13	–
GTTCCC	1.25	1.28	–
ATTTGT	1.28	1.45	–
AATACC	1.21	1.2	–
TAGCGA	0.972	1.09	–
TGCATT	1.24	1.31	–
TAGCTG	1.11	1.19	–
CTTACT	1.27	1.27	–
TGTGCC	1.17	1.13	–
CTGAAG	1.08	1.13	–

Sequence	binding signal (ERG)	binding signal (ETV4)	binding signal (ETV1)
AAAACC	1.13	1.15	–
CTCGCA	1.29	1.3	–
TTGTGC	1.23	1.35	–
TAATCG	0.975	1.08	–
TACCCC	1.07	1.06	–
TCTGGT	1.33	1.32	–
TCTGAA	1.15	1.25	–
TTGTTA	1.33	1.31	–
GTTTGA	1.12	1.18	–
ATTACA	1.12	1.14	–
CCTTTA	1.21	1.3	–
GCTAGC	1.22	1.32	–
CGCCTA	1.14	1.22	–
AGTGGC	1.28	1.33	–
TTTCCC	1.88	1.58	–
TTATAT	1.4	1.25	–
TCTCAG	1.43	1.38	–
ACCACA	0.977	1.06	–
ACGGTA	0.972	0.933	–
TCAGCT	1.06	1.17	–
CCCGTA	1.2	1.14	–
GCACGA	1.02	1.07	–
TTTGCA	1.29	1.27	–
CGCTGC	1.22	1.27	–

Sequence	binding signal (ERG)	binding signal (ETV4)	binding signal (ETV1)
TCATAT	1.2	1.27	–
GGTGGT	1.12	0.99	–
CATAAT	1.1	0.963	–
CTATCA	0.99	1.06	–
ATCTTA	1.09	1.05	–
TGGGCT	1.34	1.44	–
ACGCCT	1.2	1.27	–
TATACC	1.2	1.2	–
AAGCGG	1.1	1.11	–
CGTCCA	0.972	0.972	–
ATGGGG	1.07	0.949	–
GTTTGC	0.971	1.19	–
TGCAAG	0.955	1.04	–
ACCACG	1.06	1.06	–
CCACAC	1.07	1.11	–
TCACGT	1.29	1.22	–
CTAGAT	1.12	1.15	–
TAATTC	1.48	1.28	–
CATGTA	0.961	1.06	–
TTCGAT	1.43	1.34	–
AAAGCC	0.922	0.979	–
AGCAAA	0.991	1.02	–
CCGCCA	1.3	1.23	1.32
ATCCAT	1.11	1.12	–

Reprinted from the entries so far for reference:
Sequence	binding signal (ERG)	binding signal (ETV4)	binding signal (ETV1)
CCCGTA	1.2	1.14	–
GCACGA	1.02	1.07	–
TTTGCA	1.29	1.27	–
CGCTGC	1.22	1.27	–
TCATAT	1.2	1.27	–
GGTGGT	1.12	0.99	–
CATAAT	1.1	0.963	–
CTATCA	0.99	1.06	–
ATCTTA	1.09	1.05	–
TGGGCT	1.34	1.44	–
ACGCCT	1.2	1.27	–
TATACC	1.2	1.2	–
AAGCGG	1.1	1.11	–
CGTCCA	0.972	0.972	–
ATGGGG	1.07	0.949	–
GTTTGC	0.971	1.19	–
TGCAAG	0.955	1.04	–
ACCACG	1.06	1.06	–
CCACAC	1.07	1.11	–
TCACGT	1.29	1.22	–
CTAGAT	1.12	1.15	–
TAATTC	1.48	1.28	–
CATGTA	0.961	1.06	–
TTCGAT	1.43	1.34	–
AAAGCC	0.922	0.979	–
AGCAAA	0.991	1.02	–
CCGCCA	1.3	1.23	1.32
